According to EP4269437A1:
No constants are given. Whether binding was seen depends on the method and setting. Some results given as binding are weak or reduced against the parent protein; the word gives no strength.

The chains behind the UniProt entries cited, without tags or fusion partners. Residues count along the entry.
UniProt Q15116, residues 25-170: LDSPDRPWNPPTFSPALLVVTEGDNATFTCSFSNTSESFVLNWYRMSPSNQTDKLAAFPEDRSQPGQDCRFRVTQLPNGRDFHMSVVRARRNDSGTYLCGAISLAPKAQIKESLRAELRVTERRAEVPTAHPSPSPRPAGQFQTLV

B1: NB194-P29-z1 (Fc fusion, not shown: a dimerising Fc or GST)
heavy: QVQLVESGGGLVQPGGSLRLSCSASGHSFSIYDMGWFRQAADKERESVAVINFGRGTTYYAESVKGRFTISRDNAKNTVYLQMNSLRAEDTAVYSCGIDRRQYGLGIPPLADHWGQGSQVTVSS
B2: NB194-P29-z2 (Fc fusion, not shown: a dimerising Fc or GST)
heavy: QLQLVESGGGLVQPGGSLRLSCSASGHSFSIYDMGWFRQAADKERESVAVINFGRGTTYYAESVKGRFTISRDNAKNTVYLQMNSLRAEDTAVYSCGIDRRQYGLGIPPLADHWGQGSQVTVSS
B3: NB194-P29-z3 (Fc fusion, not shown: a dimerising Fc or GST)
heavy: QVQLVESGGGLVQPGGSLTLSCSASGHSFSIYDMGWFRQAADKERESVAVINFGRGTTYYAESVKGRFTISRDNAKNTVYLQMNSLRAEDTAVYSCGIDRRQYGLGIPPLADHWGQGSQVTVSS
B4: NB194-P29-z4 (Fc fusion, not shown: a dimerising Fc or GST)
heavy: QVQLVESGGGLVQPGGSLRLSCTASGHSFSIYDMGWFRQAADKERESVAVINFGRGTTYYAESVKGRFTISRDNAKNTVYLQMNSLRAEDTAVYSCGIDRRQYGLGIPPLADHWGQGSQVTVSS
B5: NB194-P29-z5 (Fc fusion, not shown: a dimerising Fc or GST)
heavy: QVQLVESGGGLVQPGGSLRLSCSASGHSFSIYDMGWFRQAPDKERESVAVINFGRGTTYYAESVKGRFTISRDNAKNTVYLQMNSLRAEDTAVYSCGIDRRQYGLGIPPLADHWGQGSQVTVSS
B6: NB194-P29-z6 (Fc fusion, not shown: a dimerising Fc or GST)
heavy: QVQLVESGGGLVQPGGSLRLSCSASGHSFSIYDMGWFRQAAGKERESVAVINFGRGTTYYAESVKGRFTISRDNAKNTVYLQMNSLRAEDTAVYSCGIDRRQYGLGIPPLADHWGQGSQVTVSS
B7: NB194-P29-z7 (Fc fusion, not shown: a dimerising Fc or GST)
heavy: QVQLVESGGGLVQPGGSLRLSCSASGHSFSIYDMGWFRQAADKERESVAVINFGRGTTYYAESVKGRFTISLDNAKNTVYLQMNSLRAEDTAVYSCGIDRRQYGLGIPPLADHWGQGSQVTVSS
B8: NB194-P29-z8 (Fc fusion, not shown: a dimerising Fc or GST)
heavy: QVQLVESGGGLVQPGGSLRLSCSASGHSFSIYDMGWFRQAPGKERESVAVINFGRGTTYYAESVKGRFTISRDNAKNTVYLQMNSLRAEDTAVYSCGIDRRQYGLGIPPLADHWGQGSQVTVSS
B9: NB194-P29-z9 (Fc fusion, not shown: a dimerising Fc or GST)
heavy: QVQLVESGGGLVQPGGSLRLSCSASGFTFSIYDMGWFRQAADKERESVAVINFGRGTTYYAESVKGRFTISRDNAKNTVYLQMNSLRAEDTAVYSCGIDRRQYGLGIPPLADHWGQGSQVTVSS
B10: NB194-P29-z10 (Fc fusion, not shown: a dimerising Fc or GST)
heavy: ELQLVESGGGLVQPGGSLRLSCAASGHSFSIYDMGWFRQAADKERESVAVINFGRGTTYYAESVKGRFTISRDNAKNTVYLQMNSLRAEDTAVYSCGIDRRQYGLGIPPLADHWGQGSQVTVSS
B11: NB182-z1 (Fc fusion, not shown: a dimerising Fc or GST)
heavy: EVQLVESGGGLVQPGGSLRLSCSASGDTSFISAAGWYRQAPGKERELVSAITNTGITYYPDSVKGRFTISRDNSKNTVYLQMNSLRAEDTAVYYCNAGAPPPGGLGYDESDYWGQGTQVTVSS

Target: PD-1 (UniProt Q15116)
Assay: SPR; set-up and antigen form not restated

binding, binds:
B1
B2
B3
B4
B5
B6
B7
B8
B9
B10

Target: PD-1.His (UniProt Q15116)
Assay: SPR, antibody captured on protein A, PD-1.His in flow

binding, binds:
B11
